Results are given in words; binding and its absence hold for the method and conditions named. In cells and extracts the contact can be indirect. These calls come from enrichment with a bait or labelling near it, and not all partners need be listed.
These substances were tested against T1, Neuropilin-2 (mouse (endogenous in mLMECs)) (UniProt O35375) (assay: affinity purification with mass spectrometry).
T1 sequence: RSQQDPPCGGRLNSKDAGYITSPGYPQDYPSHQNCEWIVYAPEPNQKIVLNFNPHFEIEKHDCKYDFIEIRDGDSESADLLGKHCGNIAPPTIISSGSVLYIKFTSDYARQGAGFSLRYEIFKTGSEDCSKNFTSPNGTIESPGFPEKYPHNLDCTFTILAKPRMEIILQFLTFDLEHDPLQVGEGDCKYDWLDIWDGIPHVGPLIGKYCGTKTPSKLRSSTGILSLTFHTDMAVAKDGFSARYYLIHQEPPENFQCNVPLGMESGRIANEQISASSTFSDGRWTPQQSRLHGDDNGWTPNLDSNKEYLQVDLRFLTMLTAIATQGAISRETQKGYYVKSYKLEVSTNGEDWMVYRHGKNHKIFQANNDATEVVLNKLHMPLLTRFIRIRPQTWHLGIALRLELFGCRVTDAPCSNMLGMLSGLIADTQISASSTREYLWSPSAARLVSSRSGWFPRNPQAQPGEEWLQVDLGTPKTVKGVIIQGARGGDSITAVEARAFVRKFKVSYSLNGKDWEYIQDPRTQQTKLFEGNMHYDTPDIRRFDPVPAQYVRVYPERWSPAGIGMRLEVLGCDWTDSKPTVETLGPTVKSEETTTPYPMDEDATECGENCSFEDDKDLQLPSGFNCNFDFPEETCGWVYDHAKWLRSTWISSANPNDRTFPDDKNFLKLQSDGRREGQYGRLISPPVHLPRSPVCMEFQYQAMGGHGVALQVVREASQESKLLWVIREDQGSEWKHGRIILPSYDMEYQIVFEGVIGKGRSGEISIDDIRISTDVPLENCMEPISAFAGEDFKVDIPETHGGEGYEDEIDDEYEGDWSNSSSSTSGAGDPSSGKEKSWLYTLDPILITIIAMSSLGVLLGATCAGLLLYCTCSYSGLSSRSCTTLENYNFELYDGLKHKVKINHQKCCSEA

By UniProt entry, the sequences of proteins in these tests, tags left out.
UniProt Q99KW3: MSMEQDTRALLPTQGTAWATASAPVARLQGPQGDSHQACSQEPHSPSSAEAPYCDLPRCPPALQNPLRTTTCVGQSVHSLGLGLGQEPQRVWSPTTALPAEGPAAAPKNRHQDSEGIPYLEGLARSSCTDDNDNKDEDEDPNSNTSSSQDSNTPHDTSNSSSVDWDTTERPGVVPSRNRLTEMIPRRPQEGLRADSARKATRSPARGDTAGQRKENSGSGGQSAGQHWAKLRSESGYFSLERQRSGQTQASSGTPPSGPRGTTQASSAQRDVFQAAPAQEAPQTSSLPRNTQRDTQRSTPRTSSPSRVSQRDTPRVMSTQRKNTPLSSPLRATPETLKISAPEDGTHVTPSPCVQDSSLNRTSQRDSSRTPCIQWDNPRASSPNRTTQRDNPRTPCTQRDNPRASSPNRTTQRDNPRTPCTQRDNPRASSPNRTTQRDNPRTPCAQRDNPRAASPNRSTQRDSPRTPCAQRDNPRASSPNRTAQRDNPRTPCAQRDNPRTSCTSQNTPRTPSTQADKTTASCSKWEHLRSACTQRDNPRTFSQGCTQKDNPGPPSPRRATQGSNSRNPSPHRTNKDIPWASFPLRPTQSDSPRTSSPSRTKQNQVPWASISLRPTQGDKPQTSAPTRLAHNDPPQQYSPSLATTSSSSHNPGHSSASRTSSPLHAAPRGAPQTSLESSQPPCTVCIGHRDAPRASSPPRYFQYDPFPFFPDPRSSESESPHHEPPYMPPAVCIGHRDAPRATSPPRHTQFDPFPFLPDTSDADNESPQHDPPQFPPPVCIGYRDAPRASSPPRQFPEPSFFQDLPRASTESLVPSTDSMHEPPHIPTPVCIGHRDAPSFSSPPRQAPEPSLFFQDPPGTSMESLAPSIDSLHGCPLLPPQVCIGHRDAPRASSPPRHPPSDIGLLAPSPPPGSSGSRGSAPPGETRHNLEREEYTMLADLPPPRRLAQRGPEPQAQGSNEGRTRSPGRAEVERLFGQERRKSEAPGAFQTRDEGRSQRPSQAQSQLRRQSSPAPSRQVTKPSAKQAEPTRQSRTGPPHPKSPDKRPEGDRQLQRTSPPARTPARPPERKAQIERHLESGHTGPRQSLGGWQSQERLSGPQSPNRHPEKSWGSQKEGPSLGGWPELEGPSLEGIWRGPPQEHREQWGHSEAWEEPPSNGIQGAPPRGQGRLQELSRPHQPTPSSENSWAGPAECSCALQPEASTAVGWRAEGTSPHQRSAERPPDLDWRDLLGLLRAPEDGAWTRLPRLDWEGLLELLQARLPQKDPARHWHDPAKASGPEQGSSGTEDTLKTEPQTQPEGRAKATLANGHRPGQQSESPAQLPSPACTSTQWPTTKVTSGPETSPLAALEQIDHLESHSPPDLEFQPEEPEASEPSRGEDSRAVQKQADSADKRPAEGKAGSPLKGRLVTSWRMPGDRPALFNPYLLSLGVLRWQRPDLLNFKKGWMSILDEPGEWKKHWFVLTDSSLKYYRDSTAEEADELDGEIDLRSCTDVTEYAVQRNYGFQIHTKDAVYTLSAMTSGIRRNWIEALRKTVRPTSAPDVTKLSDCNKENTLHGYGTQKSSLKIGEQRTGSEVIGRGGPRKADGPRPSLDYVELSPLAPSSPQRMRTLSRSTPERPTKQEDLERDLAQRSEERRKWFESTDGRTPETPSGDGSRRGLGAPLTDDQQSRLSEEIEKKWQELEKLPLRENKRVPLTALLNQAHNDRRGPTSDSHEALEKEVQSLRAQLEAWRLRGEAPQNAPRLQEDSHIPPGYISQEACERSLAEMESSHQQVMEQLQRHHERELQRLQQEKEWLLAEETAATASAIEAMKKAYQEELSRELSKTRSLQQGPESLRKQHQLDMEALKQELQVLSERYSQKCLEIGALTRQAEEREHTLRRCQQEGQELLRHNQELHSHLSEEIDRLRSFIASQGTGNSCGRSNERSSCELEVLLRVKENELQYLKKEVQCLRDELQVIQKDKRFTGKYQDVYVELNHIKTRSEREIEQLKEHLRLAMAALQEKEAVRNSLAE
UniProt P18760: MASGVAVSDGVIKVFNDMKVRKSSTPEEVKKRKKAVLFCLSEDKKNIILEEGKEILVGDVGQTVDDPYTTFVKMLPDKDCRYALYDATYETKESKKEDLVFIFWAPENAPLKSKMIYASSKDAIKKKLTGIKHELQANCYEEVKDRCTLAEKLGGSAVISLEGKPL
UniProt Q60598: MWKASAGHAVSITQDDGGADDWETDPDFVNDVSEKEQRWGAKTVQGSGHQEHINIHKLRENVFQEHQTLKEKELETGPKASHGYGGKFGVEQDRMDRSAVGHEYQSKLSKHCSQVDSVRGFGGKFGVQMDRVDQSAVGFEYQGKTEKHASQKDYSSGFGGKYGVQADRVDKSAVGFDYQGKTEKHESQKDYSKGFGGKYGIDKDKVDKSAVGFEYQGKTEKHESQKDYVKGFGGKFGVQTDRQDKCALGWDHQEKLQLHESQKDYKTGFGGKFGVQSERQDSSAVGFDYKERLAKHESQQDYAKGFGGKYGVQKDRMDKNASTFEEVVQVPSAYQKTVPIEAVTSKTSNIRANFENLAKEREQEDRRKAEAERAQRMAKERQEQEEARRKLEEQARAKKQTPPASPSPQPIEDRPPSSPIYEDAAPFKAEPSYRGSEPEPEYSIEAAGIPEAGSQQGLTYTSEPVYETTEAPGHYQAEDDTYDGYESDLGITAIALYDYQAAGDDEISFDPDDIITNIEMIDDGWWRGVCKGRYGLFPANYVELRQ

**Q.** Which binding does the source give for “TRIO-binding protein (from UniProt Q99KW3 1-2014)” here?
**A.** binds

**Q.** Which binding does the source give for cofilin-1 (from UniProt P18760 1-166) here?
**A.** binds

**Q.** Which binding does the source give for cortactin (from UniProt Q60598 1-546) here?
**A.** binds
